Assay results published in article PMC11173892.
These are yes or no findings as the source states them, for the method shown. Binding seen in cells or lysates may run through a third protein. These calls come from enrichment with a bait or labelling near it, and not all partners need be listed.

The chains behind the UniProt entries cited, without tags or fusion partners. Where a name states a change or a piece, a line headed by the entry shows the natural chain unless it says otherwise. Residues count along the entry.
UniProt Q15165: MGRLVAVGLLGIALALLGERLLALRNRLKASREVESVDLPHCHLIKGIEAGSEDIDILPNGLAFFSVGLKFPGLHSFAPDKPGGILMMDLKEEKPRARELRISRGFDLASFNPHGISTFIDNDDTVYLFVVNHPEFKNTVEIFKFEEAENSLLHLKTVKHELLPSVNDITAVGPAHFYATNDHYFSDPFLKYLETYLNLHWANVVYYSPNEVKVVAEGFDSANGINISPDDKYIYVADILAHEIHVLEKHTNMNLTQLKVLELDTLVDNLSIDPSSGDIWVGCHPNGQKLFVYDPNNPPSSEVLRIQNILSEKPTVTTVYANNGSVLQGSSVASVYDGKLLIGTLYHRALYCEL
UniProt P08729: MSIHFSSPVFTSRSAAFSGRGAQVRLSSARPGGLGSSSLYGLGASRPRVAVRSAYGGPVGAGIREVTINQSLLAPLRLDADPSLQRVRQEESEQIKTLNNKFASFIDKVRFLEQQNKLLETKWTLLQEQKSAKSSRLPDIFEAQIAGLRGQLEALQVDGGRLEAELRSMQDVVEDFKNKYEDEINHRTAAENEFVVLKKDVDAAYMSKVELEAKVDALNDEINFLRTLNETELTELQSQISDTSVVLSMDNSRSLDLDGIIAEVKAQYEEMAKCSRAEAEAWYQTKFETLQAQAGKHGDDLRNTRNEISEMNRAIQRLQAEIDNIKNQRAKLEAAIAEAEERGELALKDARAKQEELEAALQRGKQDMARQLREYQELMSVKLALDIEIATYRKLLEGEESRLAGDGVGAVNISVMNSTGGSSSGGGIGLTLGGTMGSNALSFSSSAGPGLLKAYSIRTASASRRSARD
UniProt P04264: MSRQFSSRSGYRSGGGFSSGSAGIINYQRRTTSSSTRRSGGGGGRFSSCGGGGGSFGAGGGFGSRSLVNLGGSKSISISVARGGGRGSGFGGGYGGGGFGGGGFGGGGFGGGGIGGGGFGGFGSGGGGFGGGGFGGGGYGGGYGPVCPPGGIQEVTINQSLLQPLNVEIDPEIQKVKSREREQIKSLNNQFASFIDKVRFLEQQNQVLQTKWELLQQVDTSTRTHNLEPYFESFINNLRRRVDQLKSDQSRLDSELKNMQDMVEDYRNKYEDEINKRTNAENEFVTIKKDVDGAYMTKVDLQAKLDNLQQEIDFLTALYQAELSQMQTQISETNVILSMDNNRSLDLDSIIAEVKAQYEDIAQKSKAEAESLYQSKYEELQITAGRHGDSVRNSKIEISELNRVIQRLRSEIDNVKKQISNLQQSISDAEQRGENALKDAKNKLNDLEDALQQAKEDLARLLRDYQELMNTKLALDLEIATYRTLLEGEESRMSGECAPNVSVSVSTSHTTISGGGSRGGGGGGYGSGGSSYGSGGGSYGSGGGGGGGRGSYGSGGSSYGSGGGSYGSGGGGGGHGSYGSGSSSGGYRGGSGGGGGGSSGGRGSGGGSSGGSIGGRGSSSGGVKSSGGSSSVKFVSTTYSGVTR
UniProt Q15365: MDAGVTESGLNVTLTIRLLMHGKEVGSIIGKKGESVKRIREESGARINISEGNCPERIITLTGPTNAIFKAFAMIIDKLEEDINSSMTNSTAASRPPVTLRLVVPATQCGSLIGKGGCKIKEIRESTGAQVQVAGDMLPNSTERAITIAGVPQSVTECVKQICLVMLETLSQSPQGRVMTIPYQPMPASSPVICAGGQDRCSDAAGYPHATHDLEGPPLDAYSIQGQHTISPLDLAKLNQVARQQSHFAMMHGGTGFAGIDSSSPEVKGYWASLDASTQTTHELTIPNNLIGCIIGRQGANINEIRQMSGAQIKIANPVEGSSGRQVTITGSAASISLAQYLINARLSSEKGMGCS
UniProt P68104: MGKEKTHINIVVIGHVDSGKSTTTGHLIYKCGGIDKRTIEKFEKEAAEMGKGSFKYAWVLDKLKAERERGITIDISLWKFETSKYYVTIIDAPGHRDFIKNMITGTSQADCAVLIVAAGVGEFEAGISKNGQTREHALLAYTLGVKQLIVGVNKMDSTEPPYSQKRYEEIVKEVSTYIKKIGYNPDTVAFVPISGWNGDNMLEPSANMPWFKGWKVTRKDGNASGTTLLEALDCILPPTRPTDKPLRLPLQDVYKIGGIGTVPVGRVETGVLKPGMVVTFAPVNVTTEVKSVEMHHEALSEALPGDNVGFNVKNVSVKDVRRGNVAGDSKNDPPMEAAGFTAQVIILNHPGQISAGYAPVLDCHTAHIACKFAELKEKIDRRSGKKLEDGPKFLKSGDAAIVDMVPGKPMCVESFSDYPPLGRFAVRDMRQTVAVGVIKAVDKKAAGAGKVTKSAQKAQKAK
UniProt P68363: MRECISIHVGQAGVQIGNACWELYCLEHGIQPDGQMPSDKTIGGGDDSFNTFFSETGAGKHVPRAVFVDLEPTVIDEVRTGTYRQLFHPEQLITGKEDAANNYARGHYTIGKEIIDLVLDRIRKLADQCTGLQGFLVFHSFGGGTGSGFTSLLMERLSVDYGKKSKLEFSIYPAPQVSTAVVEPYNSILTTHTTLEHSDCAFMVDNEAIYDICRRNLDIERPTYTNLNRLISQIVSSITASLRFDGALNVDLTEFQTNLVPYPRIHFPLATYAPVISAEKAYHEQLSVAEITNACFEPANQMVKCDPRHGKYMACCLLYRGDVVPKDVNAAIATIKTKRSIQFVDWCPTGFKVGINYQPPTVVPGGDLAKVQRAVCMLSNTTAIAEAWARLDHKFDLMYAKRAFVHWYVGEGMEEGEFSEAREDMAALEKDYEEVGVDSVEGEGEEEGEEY
UniProt P25705, residues 44-553: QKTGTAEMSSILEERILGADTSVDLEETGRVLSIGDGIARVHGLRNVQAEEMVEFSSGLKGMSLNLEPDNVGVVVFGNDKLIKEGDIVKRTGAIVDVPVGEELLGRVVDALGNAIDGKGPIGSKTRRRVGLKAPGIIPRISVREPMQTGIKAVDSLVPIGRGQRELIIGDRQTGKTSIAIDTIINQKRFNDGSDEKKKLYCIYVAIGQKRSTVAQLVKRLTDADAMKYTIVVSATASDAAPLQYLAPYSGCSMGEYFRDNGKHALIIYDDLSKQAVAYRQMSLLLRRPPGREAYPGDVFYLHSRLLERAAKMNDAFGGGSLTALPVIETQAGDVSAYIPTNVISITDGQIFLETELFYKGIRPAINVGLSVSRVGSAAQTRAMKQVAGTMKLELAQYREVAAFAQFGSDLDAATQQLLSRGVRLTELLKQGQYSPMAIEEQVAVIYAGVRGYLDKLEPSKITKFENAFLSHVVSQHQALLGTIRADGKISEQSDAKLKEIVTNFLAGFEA
UniProt P31323: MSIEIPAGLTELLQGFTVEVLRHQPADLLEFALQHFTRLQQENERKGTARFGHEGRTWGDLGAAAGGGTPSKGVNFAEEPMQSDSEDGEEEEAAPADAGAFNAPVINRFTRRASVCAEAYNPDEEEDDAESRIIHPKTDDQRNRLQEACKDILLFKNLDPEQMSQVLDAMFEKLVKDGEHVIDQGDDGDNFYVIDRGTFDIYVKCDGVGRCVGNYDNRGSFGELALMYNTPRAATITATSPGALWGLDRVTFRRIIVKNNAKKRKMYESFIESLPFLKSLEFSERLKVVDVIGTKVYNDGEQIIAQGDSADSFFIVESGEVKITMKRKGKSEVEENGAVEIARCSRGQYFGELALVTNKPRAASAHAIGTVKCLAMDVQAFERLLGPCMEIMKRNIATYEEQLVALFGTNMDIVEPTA
UniProt P13861: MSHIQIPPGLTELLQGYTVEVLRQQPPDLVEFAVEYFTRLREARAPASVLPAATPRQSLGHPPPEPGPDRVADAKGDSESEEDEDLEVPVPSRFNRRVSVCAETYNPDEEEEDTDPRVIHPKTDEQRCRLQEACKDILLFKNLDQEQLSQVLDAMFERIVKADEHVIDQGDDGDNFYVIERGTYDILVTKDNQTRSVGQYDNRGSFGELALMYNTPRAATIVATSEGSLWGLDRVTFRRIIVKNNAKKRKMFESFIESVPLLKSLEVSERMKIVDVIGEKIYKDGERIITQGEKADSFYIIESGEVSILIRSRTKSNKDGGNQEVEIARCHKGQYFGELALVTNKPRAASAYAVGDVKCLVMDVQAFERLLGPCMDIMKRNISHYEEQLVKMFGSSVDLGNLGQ
UniProt P68371: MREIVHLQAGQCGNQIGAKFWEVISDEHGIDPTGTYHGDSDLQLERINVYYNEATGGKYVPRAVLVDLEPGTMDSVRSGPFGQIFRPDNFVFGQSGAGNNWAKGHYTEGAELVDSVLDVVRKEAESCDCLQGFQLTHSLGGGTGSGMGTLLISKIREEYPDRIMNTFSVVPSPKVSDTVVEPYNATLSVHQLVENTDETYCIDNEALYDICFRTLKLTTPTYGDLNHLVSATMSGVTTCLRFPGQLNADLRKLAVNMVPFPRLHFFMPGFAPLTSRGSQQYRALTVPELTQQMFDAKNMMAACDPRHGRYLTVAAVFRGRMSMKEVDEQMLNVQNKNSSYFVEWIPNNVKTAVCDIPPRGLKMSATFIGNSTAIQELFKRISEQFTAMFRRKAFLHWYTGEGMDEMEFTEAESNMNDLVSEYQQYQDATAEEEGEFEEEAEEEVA
UniProt P12235: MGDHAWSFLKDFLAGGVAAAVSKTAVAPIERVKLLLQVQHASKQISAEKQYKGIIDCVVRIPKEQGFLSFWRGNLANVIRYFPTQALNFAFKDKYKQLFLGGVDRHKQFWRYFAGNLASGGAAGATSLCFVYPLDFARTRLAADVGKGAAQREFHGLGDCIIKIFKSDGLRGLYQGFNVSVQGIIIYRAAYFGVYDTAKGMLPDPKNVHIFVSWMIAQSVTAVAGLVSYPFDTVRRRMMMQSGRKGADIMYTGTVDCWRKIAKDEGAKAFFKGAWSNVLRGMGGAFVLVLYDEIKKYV

B1: Keratin type II cytoskeletal 9 (protein, UniProt P35527 1-623)
chain: MSCRQFSSSYLSRSGGGGGGGLGSGGSIRSSYSRFSSSGGGGGGGRFSSSSGYGGGSSRVCGRGGGGSFGYSYGGGSGGGFSASSLGGGFGGGSRGFGGASGGGYSSSGGFGGGFGGGSGGGFGGGYGSGFGGFGGFGGGAGGGDGGILTANEKSTMQELNSRLASYLDKVQALEEANNDLENKIQDWYDKKGPAAIQKNYSPYYNTIDDLKDQIVDLTVGNNKTLLDIDNTRMTLDDFRIKFEMEQNLRQGVDADINGLRQVLDNLTMEKSDLEMQYETLQEELMALKKNHKEEMSQLTGQNSGDVNVEINVAPGKDLTKTLNDMRQEYEQLIAKNRKDIENQYETQITQIEHEVSSSGQEVQSSAKEVTQLRHGVQELEIELQSQLSKKAALEKSLEDTKNRYCGQLQMIQEQISNLEAQITDVRQEIECQNQEYSLLLSIKMRLEKEIETYHNLLEGGQEDFESSGAGKIGLGGRGGSGGSYGRGSRGGSGGSYGGGGSGGGYGGGSGSRGGSGGSYGGGSGSGGGSGGGYGGGSGGGHSGGSGGGHSGGSGGNYGGGSGSGGGSGGGYGGGSGSRGGSGGSHGGGSGFGGESGGSYGGGEEASGSGGGYGGGSGKSSHS
B2: Keratin type II cytoskeletal 18 (protein, UniProt P05783 1-430)
chain: MSFTTRSTFSTNYRSLGSVQAPSYGARPVSSAASVYAGAGGSGSRISVSRSTSFRGGMGSGGLATGIAGGLAGMGGIQNEKETMQSLNDRLASYLDRVRSLETENRRLESKIREHLEKKGPQVRDWSHYFKIIEDLRAQIFANTVDNARIVLQIDNARLAADDFRVKYETELAMRQSVENDIHGLRKVIDDTNITRLQLETEIEALKEELLFMKKNHEEEVKGLQAQIASSGLTVEVDAPKSQDLAKIMADIRAQYDELARKNREELDKYWSQQIEESTTVVTTQSAEVGAAETTLTELRRTVQSLEIDLDSMRNLKASLENSLREVEARYALQMEQLNGILLHLESELAQTRAEGQRQAQEYEALLNIKVKLEAEIATYRRLLEDGEDFNLGDALDSSNSMQTIQKTTTRRIVDGKVVSETNDTKVLRH
B3: Transketolase (protein, UniProt P29401 1-623)
chain: MESYHKPDQQKLQALKDTANRLRISSIQATTAAGSGHPTSCCSAAEIMAVLFFHTMRYKSQDPRNPHNDRFVLSKGHAAPILYAVWAEAGFLAEAELLNLRKISSDLDGHPVPKQAFTDVATGSLGQGLGAACGMAYTGKYFDKASYRVYCLLGDGELSEGSVWEAMAFASIYKLDNLVAILDINRLGQSDPAPLQHQMDIYQKRCEAFGWHAIIVDGHSVEELCKAFGQAKHQPTAIIAKTFKGRGITGVEDKESWHGKPLPKNMAEQIIQEIYSQIQSKKKILATPPQEDAPSVDIANIRMPSLPSYKVGDKIATRKAYGQALAKLGHASDRIIALDGDTKNSTFSEIFKKEHPDRFIECYIAEQNMVSIAVGCATRNRTVPFCSTFAAFFTRAFDQIRMAAISESNINLCGSHCGVSIGEDGPSQMALEDLAMFRSVPTSTVFYPSDGVATEKAVELAANTKGICFIRTSRPENAIIYNNNEDFQVGQAKVVLKSKDDQVTVIGAGVTLHEALAAAELLKKEKINIRVLDPFTIKPLDRKLILDSARATKGRILTVEDHYYEGGIGEAVSSAVVGEPGITVTHLAVNRVPRSGKPAELLKMFGIDRDAIAQAVRGLITKA
B4: tRNA N(3)-methylcytidine methyltransferase (protein, UniProt Q6P1Q9 1-378)
chain: MAGSYPEGAPAILADKRQQFGSRFLSDPARVFHHNAWDNVEWSEEQAAAAERKVQENSIQRVCQEKQVDYEINAHKYWNDFYKIHENGFFKDRHWLFTEFPELAPSQNQNHLKDWFLENKSEVCECRNNEDGPGLIMEEQHKCSSKSLEHKTQTPPVEENVTQKISDLEICADEFPGSSATYRILEVGCGVGNTVFPILQTNNDPGLFVYCCDFSSTAIELVQTNSEYDPSRCFAFVHDLCDEEKSYPVPKGSLDIIILIFVLSAVVPDKMQKAINRLSRLLKPGGMVLLRDYGRYDMAQLRFKKGQCLSGNFYVRGDGTRVYFFTQEELDTLFTTAGLEKVQNLVDRRLQVNRGKQLTMYRVWIQCKYCKPLLSSTS
B5: Carbamoyl-phosphate synthase [ammonia], mitochondrial (protein, UniProt P31327 39-1500)
chain: LSVKAQTAHIVLEDGTKMKGYSFGHPSSVAGEVVFNTGLGGYPEAITDPAYKGQILTMANPIIGNGGAPDTTALDELGLSKYLESNGIKVSGLLVLDYSKDYNHWLATKSLGQWLQEEKVPAIYGVDTRMLTKIIRDKGTMLGKIEFEGQPVDFVDPNKQNLIAEVSTKDVKVYGKGNPTKVVAVDCGIKNNVIRLLVKRGAEVHLVPWNHDFTKMEYDGILIAGGPGNPALAEPLIQNVRKILESDRKEPLFGISTGNLITGLAAGAKTYKMSMANRGQNQPVLNITNKQAFITAQNHGYALDNTLPAGWKPLFVNVNDQTNEGIMHESKPFFAVQFHPEVTPGPIDTEYLFDSFFSLIKKGKATTITSVLPKPALVASRVEVSKVLILGSGGLSIGQAGEFDYSGSQAVKAMKEENVKTVLMNPNIASVQTNEVGLKQADTVYFLPITPQFVTEVIKAEQPDGLILGMGGQTALNCGVELFKRGVLKEYGVKVLGTSVESIMATEDRQLFSDKLNEINEKIAPSFAVESIEDALKAADTIGYPVMIRSAYALGGLGSGICPNRETLMDLSTKAFAMTNQILVEKSVTGWKEIEYEVVRDADDNCVTVCNMENVDAMGVHTGDSVVVAPAQTLSNAEFQMLRRTSINVVRHLGIVGECNIQFALHPTSMEYCIIEVNARLSRSSALASKATGYPLAFIAAKIALGIPLPEIKNVVSGKTSACFEPSLDYMVTKIPRWDLDRFHGTSSRIGSSMKSVGEVMAIGRTFEESFQKALRMCHPSIEGFTPRLPMNKEWPSNLDLRKELSEPSSTRIYAIAKAIDDNMSLDEIEKLTYIDKWFLYKMRDILNMEKTLKGLNSESMTEETLKRAKEIGFSDKQISKCLGLTEAQTRELRLKKNIHPWVKQIDTLAAEYPSVTNYLYVTYNGQEHDVNFDDHGMMVLGCGPYHIGSSVEFDWCAVSSIRTLRQLGKKTVVVNCNPETVSTDFDECDKLYFEELSLERILDIYHQEACGGCIISVGGQIPNNLAVPLYKNGVKIMGTSPLQIDRAEDRSIFSAVLDELKVAQAPWKAVNTLNEALEFAKSVDYPCLLRPSYVLSGSAMNVVFSEDEMKKFLEEATRVSQEHPVVLTKFVEGAREVEMDAVGKDGRVISHAISEHVEDAGVHSGDATLMLPTQTISQGAIEKVKDATRKIAKAFAISGPFNVQFLVKGNDVLVIECNLRASRSFPFVSKTLGVDFIDVATKVMIGENVDEKHLPTLDHPIIPADYVAIKAPMFSWPRLRDADPILRCEMASTGEVACFGEGIHTAFLKAMLSTGFKIPQKGILIGIQQSFRPRFLGVAEQLHNEGFKLFATEATSDWLNANNVPATPVAWPSQEGQNPSLSSIRKLIRDGSIDLVINLPNNNTKFVHDNYVIRRTAVDSGIPLLTNFQVTKLFAEAVQKSRKVDSKSLFHYRQYSAGKAA
B6: Heterogeneous nuclear ribonucleoprotein M (protein, UniProt P52272 1-730)
chain: MAAGVEAAAEVAATEIKMEEESGAPGVPSGNGAPGPKGEGERPAQNEKRKEKNIKRGGNRFEPYANPTKRYRAFITNIPFDVKWQSLKDLVKEKVGEVTYVELLMDAEGKSRGCAVVEFKMEESMKKAAEVLNKHSLSGRPLKVKEDPDGEHARRAMQKVMATTGGMGMGPGGPGMITIPPSILNNPNIPNEIIHALQAGRLGSTVFVANLDYKVGWKKLKEVFSMAGVVVRADILEDKDGKSRGIGTVTFEQSIEAVQAISMFNGQLLFDRPMHVKMDERALPKGDFFPPERPQQLPHGLGGIGMGLGPGGQPIDANHLNKGIGMGNIGPAGMGMEGIGFGINKMGGMEGPFGGGMENMGRFGSGMNMGRINEILSNALKRGEIIAKQGGGGGGGSVPGIERMGPGIDRLGGAGMERMGAGLGHGMDRVGSEIERMGLVMDRMGSVERMGSGIERMGPLGLDHMASSIERMGQTMERIGSGVERMGAGMGFGLERMAAPIDRVGQTIERMGSGVERMGPAIERMGLSMERMVPAGMGAGLERMGPVMDRMATGLERMGANNLERMGLERMGANSLERMGLERMGANSLERMGPAMGPALGAGIERMGLAMGGGGGASFDRAIEMERGNFGGSFAGSFGGAGGHAPGVARKACQIFVRNLPFDFTWKMLKDKFNECGHVLYADIKMENGKSKGCGVVKFESPEVAERACRMMNGMKLSGREIDVRIDRNA
B7: Peroxiredoxin1 (protein, UniProt Q06830 1-199)
chain: MSSGNAKIGHPAPNFKATAVMPDGQFKDISLSDYKGKYVVFFFYPLDFTFVCPTEIIAFSDRAEEFKKLNCQVIGASVDSHFCHLAWVNTPKKQGGLGPMNIPLVSDPKRTIAQDYGVLKADEGISFRGLFIIDDKGILRQITVNDLPVGRSVDETLRLVQAFQFTDKHGEVCPAGWKPGSDTIKPDVQKSKEYFSKQK

Molecular target: recombinant human paraoxonase 2 (rPON2) (human) (UniProt Q15165)
Assay: affinity purification with mass spectrometry; direct molecular fishing: purified His-tagged rPON2 (0.5 mg/mL, dialysed into modified RIPA buffer) incubated overnight at 4 °C with 5 mL HeLa extract (4.27 mg/mL), captured on nickel-NTA resin, washed twice with RIPA buffer, eluted with 300 mM …; LC-MS/MS; hits common to two independent experiments (A and B); only the target purified

| binding | Molecule |
| --- | --- |
| binds | Keratin type II cytoskeletal 7 (from UniProt P08729 1-469) |
| binds | Keratin type II cytoskeletal 1 (from UniProt P04264 1-644) |
| binds | Poly(rC)-binding protein 1 (from UniProt Q15365 1-356) |
| binds | Elongation factor 1°1 (from UniProt P68104 1-462) |
| binds | Tubulin A1B (from UniProt P68363 1-451) |
| binds | ATP synthase F1 subunit alpha (from UniProt P25705 44-553) |
| binds | cAMP-dependent protein kinase type II beta regulatory subunit (from UniProt P31323 1-418) |
| binds | cAMP-dependent protein kinase type II alpha regulatory subunit (from UniProt P13861 1-404) |
| binds | Tubulin 4B (from UniProt P68371 1-445) |
| binds | ADP/ATP translocase 1 (from UniProt P12235 1-298) |
| binds | B1 |
| binds | B2 |
| binds | B3 |
| binds | B4 |
| binds | B5 |
| binds | B6 |
| binds | B7 |
